Earlier results on 1 molecule are cited in PMC8041708, “Characterization of MK6240, a tau PET tracer, in autopsy brain tissue from Alzheimer’s disease cases” (European Journal of Nuclear Medicine and Molecular Imaging, 2020).

The subject of this data set is AD tissue. The conditions noted are these: ref [8]; cited from earlier work.

For the molecule `CNc1ccc(-c2ccc3cc(OCC(O)CF)ccc3n2)cc1` (centres unmarked) [THK5117], the Bmax1 was 250 fmol/mg and the Bmax2 is reported as 1416 fmol/mg.
